Patent US20080161239A1
Results are given in words; binding and its absence hold for the method and conditions named. For part of these data: In cells and extracts the contact can be indirect. Some entries that bind do so weakly or less than the wild type. For part of these data: Where a sequence is shown, tags or fusion partners need not be part of it. Blank lines part the entries; values can stand above or below the binder they belong to.

Protein sequences, listed by entry. Tags and fused reporters are not part of them. Lines headed by an entry give the natural chain unless they say otherwise; changes in a name come on top.
UniProt P05067: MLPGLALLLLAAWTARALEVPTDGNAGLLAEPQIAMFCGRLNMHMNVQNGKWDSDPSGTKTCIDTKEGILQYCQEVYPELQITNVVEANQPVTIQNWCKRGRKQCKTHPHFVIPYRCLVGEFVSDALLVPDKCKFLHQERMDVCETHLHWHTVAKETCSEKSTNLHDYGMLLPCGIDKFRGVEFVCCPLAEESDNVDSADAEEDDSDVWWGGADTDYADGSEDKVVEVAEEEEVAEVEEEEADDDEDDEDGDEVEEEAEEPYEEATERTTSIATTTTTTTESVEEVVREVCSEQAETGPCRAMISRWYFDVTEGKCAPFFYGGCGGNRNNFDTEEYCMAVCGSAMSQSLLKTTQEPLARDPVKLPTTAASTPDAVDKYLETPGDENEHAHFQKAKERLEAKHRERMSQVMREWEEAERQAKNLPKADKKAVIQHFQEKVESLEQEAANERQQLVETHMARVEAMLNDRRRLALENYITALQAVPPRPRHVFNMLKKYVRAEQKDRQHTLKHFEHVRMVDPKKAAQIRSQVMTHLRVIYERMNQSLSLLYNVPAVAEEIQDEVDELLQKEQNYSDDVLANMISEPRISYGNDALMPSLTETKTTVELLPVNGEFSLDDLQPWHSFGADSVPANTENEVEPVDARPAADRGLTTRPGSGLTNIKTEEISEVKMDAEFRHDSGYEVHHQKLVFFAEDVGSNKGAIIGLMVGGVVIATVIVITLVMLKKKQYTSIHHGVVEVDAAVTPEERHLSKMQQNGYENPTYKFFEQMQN
UniProt P63208: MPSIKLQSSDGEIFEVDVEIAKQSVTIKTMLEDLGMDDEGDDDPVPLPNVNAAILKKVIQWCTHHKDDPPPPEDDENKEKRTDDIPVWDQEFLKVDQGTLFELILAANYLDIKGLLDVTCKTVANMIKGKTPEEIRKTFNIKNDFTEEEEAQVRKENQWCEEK

Key:
[1] = biological target: CTFα protein (C-terminal fragment α of APP, from cleavage by α-secretase) (human) (UniProt P05067); test: co-immunoprecipitation with anti-Flag agarose from HEK293A lysate, Western blot with anti-APP antibodies
[2] = biological target: CTFβ protein (C-terminal fragment β of APP, from cleavage by β-secretase) (human) (UniProt P05067); test: as above
[3] = biological target: amyloid precursor protein consisting of 695 amino acids (APP695) (human) (UniProt P05067); test: as above
[4] = biological target: CTFα protein (C-terminal fragment α of APP, from cleavage by α-secretase) (human) (UniProt P05067); test: co-immunoprecipitation with anti-Flag agarose from HEK293A lysate, Western blot
[5] = biological target: CTFβ protein (C-terminal fragment β of APP, from cleavage by β-secretase) (human) (UniProt P05067); test: as above
[6] = biological target: amyloid precursor protein consisting of 695 amino acids (APP695) (human) (UniProt P05067); test: as above
[7] = biological target: T1, human type YPEL1 (hYPEL1) having the Myc tag introduced to the N terminus (human) (UniProt O60688); test: co-immunoprecipitation with anti-Flag agarose from COS7 lysate, Western blot
T1 sequence (looked up): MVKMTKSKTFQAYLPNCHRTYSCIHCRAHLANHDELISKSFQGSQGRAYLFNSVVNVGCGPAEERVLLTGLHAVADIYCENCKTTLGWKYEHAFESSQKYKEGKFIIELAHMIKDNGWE

[8] = biological target: human type Skp1 (hSkp1), S-phase kinase-associated protein 1A (human) (UniProt P63208); test: as above
[9] = biological target: T1, human type YPEL1 (hYPEL1) having the Myc tag introduced to the N terminus (human); test: co-immunoprecipitation with anti-Flag agarose from COS7 lysate, Western blot with anti-Myc antibody
[10] = biological target: human type Skp1 (hSkp1), S-phase kinase-associated protein 1A (human) (UniProt P63208); test: co-immunoprecipitation with anti-Flag agarose from COS7 lysate, Western blot with anti-Skp1 antibody
[11] = biological target: S-phase kinase-associated protein 1A (Skp1), positive clone of the Pretransformed Matchmaker human brain cDNA library (human) (UniProt P63208); test: yeast two-hybrid screen of a human brain cDNA library, growth selection and X-α-gal activity
[12] = biological target: T2, yippee-like 1 (YPEL1), positive clone of the Pretransformed Matchmaker human brain cDNA library (human) (UniProt O60688); test: as above
T2 sequence (looked up): T1 sequence (looked up)

binding [1]: binds
binding [2]: binds
binding [3]: binds
binding [4]: binds
binding [5]: binds
binding [6]: binds
binding [7]: binds
binding [8]: binds
binding [9]: binds
binding [10]: binds
B1: hFBL2 incorporating a Flag tag (human F-box and leucine rich repeat protein 2 with a Flag tag at the N terminus) (protein, not shown: small tags and cut ends)
chain: MVFSNNDEGLINKKLPKELLLRIFSFLDIVTLCRCAQISKAWNILALDGSNWQRIDLFNFQTDVEGRVVENISKRCGGFLRKLSLRGCIGVGDSSLKTFAQNCRNIEHLNLNGCTKITDSTCYSLSRFCSKLKHLDLTSCVSITNSSLKGISEGCRNLEYLNLSWCDQITKDGIEALVRGCRGLKALLLRGCTQLEDEALKHIQNYCHELVSLNLQSCSRITDEGVVQICRGCHRLQALCLSGCSNLTDASLTALGLNCPRLQILEAARCSHLTDAGFTLLARNCHELEKMDLEECILITDSTLIQLSIHCPKLQALSLSHCELITDDGILHLSNSTCGHERLRVLELDNCLLITDVALEHLENCRGLERLELYDCQQVTRAGIKRMRAQLPHVKVHAYFAPVTPPTAVAGSGQRLCRCCVIL

binding [11]: binds
binding [12]: binds
B2: hFBL2 expressed from the pGBKT7 vector for the Yeast Two-Hybrid system (protein, not shown: large carriers)
chain: B1 chain
